Results of single-concentration screens

Mtb cholesterol medium: 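Phenotypic screen: M. tuberculosis growth, cholesterol and DPPC medium, 4 days; the read-out is not stated. Tested at 50 µM. Higher reads as more growth inhibition (inferred: compounds with an IC50 in retests scored well above the rest). Size under these conditions: about 69,000 compounds, about 370 of them at 50% or above in at least one test.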
Mtb glucose medium: 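Whole-cell growth test on Mycobacterium tuberculosis, read after 3 days in glucose-containing 7H9 medium; the read-out is not stated. Compounds at 50 µM. Direction is inferred from retests: higher values go with more growth inhibition. Of about 69,000 compounds tested this way, about 760 (1.1%) reached 50% or more in at least one test.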

The filed quantity is “Percent Effect” (%). The controls that fix the scale are not given in the record; negative values are as filed. Compounds were drawn at random from those tested, without regard to their results. Two or more numbers in one place are separate tests of the same structure; such repeats can differ widely.

* [H][C@]12CNC[C@@]1(C(=O)NCCCOc1cccnc1)CN(C(C)=O)C2 : Mtb cholesterol medium: -30.87%; Mtb glucose medium: -4.959%
* COC(=O)c1cccc(C(=O)N(C)Cc2ccsc2)c1 : Mtb cholesterol medium: -31.13%; Mtb glucose medium: -27.47%
* CCNC(=O)CN(CC)S(=O)(=O)c1c(Br)cc2[nH]c(=O)oc2c1Cl : Mtb cholesterol medium: -4.637%; Mtb glucose medium: -29.77%
* COc1ccc(CN(C)CC(O)COCc2ccccc2Cl)c(OC)c1.O=C(O)C(=O)O (configuration not stated) : Mtb cholesterol medium: 5.54%; Mtb glucose medium: -1.674%
* CCC(C)(C)NC(=O)Cn1nc(C)nc1-c1cccc(C)c1 : Mtb cholesterol medium: -7.782%; Mtb glucose medium: -1.867%
* Cc1noc(CN2CCC(c3ccnn3CCO)CC2)n1 : Mtb cholesterol medium: 17.48%; Mtb glucose medium: 4.282%
* Cc1nc(C)n(C2CCCN(C(=O)CCCn3ccnc3)C2)n1 (configuration not stated) : Mtb cholesterol medium: -5.66% & -7.1%; Mtb glucose medium: -5.631%
* CC(C)Oc1ncccc1CNC(=O)N1CCSCC1 : Mtb cholesterol medium: -9.901%; Mtb glucose medium: 3.483% & -14.92%
* [H][C@@]12COC[C@]1(COc1cccnc1)CN(C(=O)c1ccc(C)nc1)C2 : Mtb cholesterol medium: -12.57%; Mtb glucose medium: -14.76%
* CCCC(O)CNc1cncc(Br)c1 (configuration not stated) : Mtb cholesterol medium: 49.65%; Mtb glucose medium: 36.57%
* CC(=O)NCCCSC1CCN(c2ccccc2F)C1=O (configuration not stated) : Mtb cholesterol medium: 4.92%; Mtb glucose medium: -1.826% & 2.381%
* O=C(c1cc[nH]n1)N1CCCC1c1cnccn1 (configuration not stated) : Mtb cholesterol medium: 12.25%; Mtb glucose medium: 8.69%
* Cc1noc(C)c1CS(=O)(=O)CC(=O)NCCc1ccccc1 : Mtb cholesterol medium: -16.41%; Mtb glucose medium: -5.67% & -7.085%
* CC(C(=O)Nc1cc(F)ccc1F)N1CCN(Cc2ncc[nH]2)CC1 (configuration not stated) : Mtb cholesterol medium: 9.313%; Mtb glucose medium: -6.527%
* CN(C)c1ncc(I)c(C2CCCCN2C)n1 (configuration not stated) : Mtb cholesterol medium: 18.7%; Mtb glucose medium: 17.72%
* CCc1cc(N(C)CCc2c(C)n[nH]c2C)ncn1 : Mtb cholesterol medium: -33.69%; Mtb glucose medium: 5.989%
* CCOC(=O)c1s/c(=N\C(=O)COc2cnc(C)cc2O)[nH]c1C : Mtb cholesterol medium: -2.091%; Mtb glucose medium: 14.37%
* CCN(C(=O)Cn1cc(NC(=O)C(C)(C)C)cn1)c1ccccc1 : Mtb cholesterol medium: -1.519%; Mtb glucose medium: 9.267%
* COc1ccc(OC)c(-c2csc(-c3cccc(C(=O)O)c3)n2)c1 : Mtb cholesterol medium: 12.49%; Mtb glucose medium: -2.041% & 11.17%
* O=C(Nc1ccccc1Oc1cccc(F)c1)NC1CCS(=O)(=O)C1 (configuration not stated) : Mtb cholesterol medium: -4.573%; Mtb glucose medium: 12.63% & 7.308%
* Cc1ncnc2c1CCN(c1ccccn1)CC2.O=C(O)C(F)(F)F : Mtb cholesterol medium: 19.47%; Mtb glucose medium: 12.95%
* Cn1cc(-c2nnc3sc(C4CCC4)nn23)cn1 : Mtb cholesterol medium: -9.419%; Mtb glucose medium: 46.27%
* COCCN1CCN(C(=O)c2ccncc2F)Cc2cccnc21 : Mtb cholesterol medium: -20.37%; Mtb glucose medium: 0.3293%
* CN(C)C(=O)N1CCC2(CCCN(c3ncccn3)C2)C1.O=C(O)C(F)(F)F (configuration not stated) : Mtb cholesterol medium: 4.069%; Mtb glucose medium: -9.137%
* CC1CN(CCc2ccccn2)CCN1c1ccc2nncn2n1 (configuration not stated) : Mtb cholesterol medium: -16.84%; Mtb glucose medium: -8.948%
* c1cnc(-c2nn3c(CN4CCCCC4)nnc3s2)cn1 : Mtb cholesterol medium: -13.16%; Mtb glucose medium: -23.51%
* Cc1cccc(C(C(=O)NCCCc2nnc3ccccn23)N(C)C)c1 (configuration not stated) : Mtb cholesterol medium: -18.68%; Mtb glucose medium: 9.486%
* CCN1CCN(C)C(=O)C12CCN(C(=O)Cc1ccccn1)CC2.O=C(O)C(F)(F)F : Mtb cholesterol medium: 6.436%; Mtb glucose medium: -12.13%
* CCc1c(C)nc(C)nc1N1C[C@@H](CN(C)CCN(C)C)[C@@H](CO)C1 : Mtb cholesterol medium: -0.4151% & 0.8547%; Mtb glucose medium: -20.06%
* CS(=O)(=O)NCCN1CCCC1c1ccc(Cl)cc1 (configuration not stated) : Mtb cholesterol medium: 4.456%; Mtb glucose medium: 23.91%
* Cc1nc(C)n(CC(C)C(=O)N2CCC(NS(C)(=O)=O)CC2)n1 (configuration not stated) : Mtb cholesterol medium: -40%; Mtb glucose medium: 9.403%
* [H][C@]12CCC[C@@]1(CO)CN(C(=O)c1cc(C)nc3ccc(C)cc13)C2 : Mtb cholesterol medium: -21.29%; Mtb glucose medium: -5.677%
* CC[C@H](C)[C@H](NC(=O)c1ccc(-n2cnnn2)cc1)C(=O)OC : Mtb cholesterol medium: -20.2%; Mtb glucose medium: -11.69%
* [H][C@]12CCN(C(=O)C3CCOC3)C[C@@]1([H])OCCN(S(C)(=O)=O)C2 (some centres not stated) : Mtb cholesterol medium: -15.7%; Mtb glucose medium: -27.66%
* CC(=O)N(Cc1ncc(C(C)C)o1)C1CCN(Cc2cc(C)on2)C1 (configuration not stated) : Mtb cholesterol medium: -13.58%; Mtb glucose medium: -18.79%
* C[C@@H](N)C(=O)N1CCC(c2[nH]ncc2-c2ccccc2)CC1 : Mtb cholesterol medium: -2.485%; Mtb glucose medium: -17.73%
* COc1ccc(Cl)cc1CNCCCn1ccnc1 : Mtb cholesterol medium: -1.57% & 0.7652%; Mtb glucose medium: 14.82%
* CNc1cc(N2CCCC2CNCc2csc(C)n2)ncn1 (configuration not stated) : Mtb cholesterol medium: 14.39%; Mtb glucose medium: 32.35%
* O=C(NCCCO)Nc1cccc(Cl)c1F : Mtb cholesterol medium: -1.576%; Mtb glucose medium: -6.594% & -1.342%
* CN(CCc1ccccn1)C(=O)c1ccccc1F : Mtb cholesterol medium: -20.84%; Mtb glucose medium: 24.26%
* CCc1nc2c(c(NC3CCC3)n1)CCN(C(=O)CO)CC2 : Mtb cholesterol medium: -9.295%; Mtb glucose medium: -10.14%
* CC(C)C(NC(=O)NCCNc1cnccn1)c1cccs1 (configuration not stated) : Mtb cholesterol medium: -13.89%; Mtb glucose medium: 25.49%
* COc1cc2[nH]c(=O)c(CN3CCCC3C)cc2c(OC)c1OC (configuration not stated) : Mtb cholesterol medium: 19.78%; Mtb glucose medium: 17.72%
* NC(=O)NCC(=O)N1CCC(c2cc(-c3ccccc3Cl)n[nH]2)CC1 : Mtb cholesterol medium: 9.144%; Mtb glucose medium: 17.19%
* Cc1nc(C(C)C)sc1C(=O)NS(=O)(=O)c1ccc(C#N)cc1 : Mtb cholesterol medium: 17.55%; Mtb glucose medium: -2.375%

For reference, 5 entries once more:

O=C(c1cc[nH]n1)N1CCCC1c1cnccn1 (configuration not stated) gave Mtb cholesterol medium: 12.25%; Mtb glucose medium: 8.69%.
COc1ccc(Cl)cc1CNCCCn1ccnc1 gave Mtb cholesterol medium: -1.57% & 0.7652%; Mtb glucose medium: 14.82%.
CC(C)C(NC(=O)NCCNc1cnccn1)c1cccs1 (configuration not stated) gave Mtb cholesterol medium: -13.89%; Mtb glucose medium: 25.49%.
CCOC(=O)c1s/c(=N\C(=O)COc2cnc(C)cc2O)[nH]c1C gave Mtb cholesterol medium: -2.091%; Mtb glucose medium: 14.37%.
CC(C(=O)Nc1cc(F)ccc1F)N1CCN(Cc2ncc[nH]2)CC1 (configuration not stated) gave Mtb cholesterol medium: 9.313%; Mtb glucose medium: -6.527%.

From ChEMBL document CHEMBL3988442, “University of Dundee, Small-Polar-MMV Screening Library” (2021).